This passage reports binding results from article PMC7353009, “Identification of Substrates of Cytoplasmic Peptidyl-Prolyl Cis/Trans Isomerases and Their Collective Essentiality in Escherichia Coli” (International Journal of Molecular Sciences, 2020).

Chains of the proteins cited; added tags and fusions are not shown.
UniProt P0A9B2: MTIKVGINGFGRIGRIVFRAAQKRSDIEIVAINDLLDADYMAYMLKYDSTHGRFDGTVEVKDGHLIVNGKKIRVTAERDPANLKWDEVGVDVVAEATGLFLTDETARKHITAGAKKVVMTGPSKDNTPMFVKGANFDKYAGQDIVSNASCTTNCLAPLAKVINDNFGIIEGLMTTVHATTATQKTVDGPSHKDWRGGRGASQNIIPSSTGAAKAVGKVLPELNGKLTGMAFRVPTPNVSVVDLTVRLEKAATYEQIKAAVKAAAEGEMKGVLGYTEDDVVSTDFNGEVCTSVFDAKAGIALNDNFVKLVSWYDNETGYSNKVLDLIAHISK
UniProt P0ACI0: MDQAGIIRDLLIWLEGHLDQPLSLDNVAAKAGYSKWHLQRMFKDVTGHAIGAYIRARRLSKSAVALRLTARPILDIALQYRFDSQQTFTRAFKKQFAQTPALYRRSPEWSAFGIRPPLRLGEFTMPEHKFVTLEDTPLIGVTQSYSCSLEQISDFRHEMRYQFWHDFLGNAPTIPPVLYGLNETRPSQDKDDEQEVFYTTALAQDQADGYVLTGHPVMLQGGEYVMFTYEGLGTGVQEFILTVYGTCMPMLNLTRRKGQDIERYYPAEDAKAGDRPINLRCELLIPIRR
UniProt P0A7Z4: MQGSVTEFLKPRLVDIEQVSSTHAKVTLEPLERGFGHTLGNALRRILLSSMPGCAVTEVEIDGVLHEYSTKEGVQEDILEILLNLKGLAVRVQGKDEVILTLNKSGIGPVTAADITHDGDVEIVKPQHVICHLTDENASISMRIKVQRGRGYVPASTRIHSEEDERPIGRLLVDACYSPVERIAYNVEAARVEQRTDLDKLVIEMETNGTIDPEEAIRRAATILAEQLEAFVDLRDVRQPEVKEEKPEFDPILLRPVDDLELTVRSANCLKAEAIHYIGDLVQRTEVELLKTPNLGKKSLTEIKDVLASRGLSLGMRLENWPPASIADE
UniProt P0AE08: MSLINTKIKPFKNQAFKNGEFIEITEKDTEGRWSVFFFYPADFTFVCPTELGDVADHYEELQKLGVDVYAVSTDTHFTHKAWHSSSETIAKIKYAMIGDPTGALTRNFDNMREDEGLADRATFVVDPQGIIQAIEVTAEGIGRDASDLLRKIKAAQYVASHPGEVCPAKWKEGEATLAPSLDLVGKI
UniProt P0AG30: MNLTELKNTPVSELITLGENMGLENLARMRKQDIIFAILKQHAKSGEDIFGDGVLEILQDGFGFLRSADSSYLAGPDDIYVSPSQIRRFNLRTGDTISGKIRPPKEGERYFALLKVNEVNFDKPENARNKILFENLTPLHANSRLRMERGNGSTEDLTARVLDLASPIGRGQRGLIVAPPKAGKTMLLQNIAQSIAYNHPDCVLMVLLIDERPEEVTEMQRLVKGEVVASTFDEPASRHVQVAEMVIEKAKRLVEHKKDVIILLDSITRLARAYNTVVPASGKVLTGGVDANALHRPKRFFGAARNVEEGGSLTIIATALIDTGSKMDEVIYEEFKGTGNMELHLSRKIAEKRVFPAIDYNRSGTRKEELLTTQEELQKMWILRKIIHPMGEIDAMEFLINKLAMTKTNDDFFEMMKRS
UniProt P0AFG0: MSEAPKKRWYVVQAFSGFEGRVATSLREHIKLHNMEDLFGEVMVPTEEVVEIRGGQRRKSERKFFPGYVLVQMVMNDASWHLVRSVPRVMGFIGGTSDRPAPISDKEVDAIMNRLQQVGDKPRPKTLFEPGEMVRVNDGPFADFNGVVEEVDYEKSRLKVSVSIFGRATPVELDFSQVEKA
UniProt P0AAI5: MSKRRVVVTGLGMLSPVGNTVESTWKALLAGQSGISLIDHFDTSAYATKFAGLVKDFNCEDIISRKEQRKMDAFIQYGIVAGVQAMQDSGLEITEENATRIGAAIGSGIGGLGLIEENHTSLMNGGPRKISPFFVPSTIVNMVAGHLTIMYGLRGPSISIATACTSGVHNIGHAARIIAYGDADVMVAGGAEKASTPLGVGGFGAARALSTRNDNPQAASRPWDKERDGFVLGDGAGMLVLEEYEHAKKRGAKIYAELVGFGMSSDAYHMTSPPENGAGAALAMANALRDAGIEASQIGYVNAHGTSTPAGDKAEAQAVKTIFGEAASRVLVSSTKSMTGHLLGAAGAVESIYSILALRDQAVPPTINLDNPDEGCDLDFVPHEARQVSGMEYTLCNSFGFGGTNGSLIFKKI
UniProt P0A9X4: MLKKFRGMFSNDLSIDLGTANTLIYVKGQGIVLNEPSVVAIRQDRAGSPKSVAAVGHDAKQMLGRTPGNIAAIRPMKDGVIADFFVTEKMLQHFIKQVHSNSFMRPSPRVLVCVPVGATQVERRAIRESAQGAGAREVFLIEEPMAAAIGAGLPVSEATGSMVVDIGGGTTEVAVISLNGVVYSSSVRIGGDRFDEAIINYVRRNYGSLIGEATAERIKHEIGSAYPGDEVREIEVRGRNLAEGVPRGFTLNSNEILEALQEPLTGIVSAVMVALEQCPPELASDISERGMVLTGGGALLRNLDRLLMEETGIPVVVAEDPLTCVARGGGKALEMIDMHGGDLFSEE
UniProt P42641: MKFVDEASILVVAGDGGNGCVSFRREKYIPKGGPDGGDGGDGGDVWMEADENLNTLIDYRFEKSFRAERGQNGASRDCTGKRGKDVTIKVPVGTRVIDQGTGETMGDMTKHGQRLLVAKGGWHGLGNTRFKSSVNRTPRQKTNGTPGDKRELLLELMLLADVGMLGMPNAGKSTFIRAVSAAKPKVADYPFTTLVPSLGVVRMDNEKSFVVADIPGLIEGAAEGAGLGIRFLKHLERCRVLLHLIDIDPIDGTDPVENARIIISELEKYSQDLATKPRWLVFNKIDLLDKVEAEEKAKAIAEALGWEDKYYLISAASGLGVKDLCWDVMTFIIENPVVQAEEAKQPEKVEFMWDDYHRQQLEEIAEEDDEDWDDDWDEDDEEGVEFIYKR
UniProt P0ADG4: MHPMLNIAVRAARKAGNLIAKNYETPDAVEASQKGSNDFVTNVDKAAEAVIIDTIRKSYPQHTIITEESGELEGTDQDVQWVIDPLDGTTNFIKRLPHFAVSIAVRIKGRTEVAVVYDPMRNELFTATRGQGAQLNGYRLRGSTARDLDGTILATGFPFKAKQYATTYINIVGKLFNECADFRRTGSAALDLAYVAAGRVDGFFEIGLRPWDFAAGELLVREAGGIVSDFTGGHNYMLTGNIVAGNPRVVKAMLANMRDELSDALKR

Assay in all cases: affinity purification with mass spectrometry; His6-tagged PPI induced with 0.1 mM IPTG in an E. coli T7 express derivative lacking all six PPIs (SR21984); soluble lysate on Ni-NTA beads, 50 mM NaH2PO4, 300 mM NaCl, eluted with a linear imidazole gradient (50-500 mM); co-eluting proteins resolved by SDS-PAGE (for FkpB also 2D gels) and identified by MALDI-TOF
Test [1] concerns the target T1, Hexa-His-tagged FkpB E86A (E. coli) (UniProt P0AEM0).
T1 sequence: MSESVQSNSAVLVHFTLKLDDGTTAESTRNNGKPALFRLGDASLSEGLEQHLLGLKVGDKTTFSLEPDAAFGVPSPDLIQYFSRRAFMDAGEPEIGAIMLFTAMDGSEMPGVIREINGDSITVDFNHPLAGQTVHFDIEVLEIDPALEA

Test [2] deals with T2, Hexa-His-tagged FkpB (wild type) (E. coli) (UniProt P0AEM0).
T2 sequence: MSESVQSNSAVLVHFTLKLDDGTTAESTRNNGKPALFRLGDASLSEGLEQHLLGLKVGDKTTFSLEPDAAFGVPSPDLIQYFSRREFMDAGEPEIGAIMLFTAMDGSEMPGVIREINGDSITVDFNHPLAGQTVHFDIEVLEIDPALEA

Test [3] has as its target T3, Hexa-His-tagged FklB (wild type) (E. coli) (UniProt P0A9L3).
T3 sequence: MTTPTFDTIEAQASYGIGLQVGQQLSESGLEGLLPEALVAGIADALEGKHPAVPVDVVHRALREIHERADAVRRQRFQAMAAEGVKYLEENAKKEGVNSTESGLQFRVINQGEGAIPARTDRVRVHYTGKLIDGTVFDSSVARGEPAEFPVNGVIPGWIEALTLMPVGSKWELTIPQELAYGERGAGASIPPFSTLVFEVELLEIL

Test [4] deals with T4, Hexa-His-tagged PpiC (wild type) (E. coli, UniProt P0A9L5 1-93).
T4 construct: PpiC, parvulin peptidyl-prolyl cis/trans isomerase, E. coli; coding region of the ppiC gene in pET24b; The tag is called cleavable; also called wt PpiC; wild-type PpiC; source: E. coli T7 express derivative lacking all six PPIs (SR21984), IPTG-induced; in lysate on Ni-NTA for co-elution; purified (Ni-NTA) for ITC; not shown: His6, C-terminal, kept
T4 sequence (looked up): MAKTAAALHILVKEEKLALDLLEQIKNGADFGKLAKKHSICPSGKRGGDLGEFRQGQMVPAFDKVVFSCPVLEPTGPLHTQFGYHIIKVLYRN

In test [5] the target is T5, His6-tagged PpiB (wild type) (E. coli) (UniProt P23869).
T5 sequence: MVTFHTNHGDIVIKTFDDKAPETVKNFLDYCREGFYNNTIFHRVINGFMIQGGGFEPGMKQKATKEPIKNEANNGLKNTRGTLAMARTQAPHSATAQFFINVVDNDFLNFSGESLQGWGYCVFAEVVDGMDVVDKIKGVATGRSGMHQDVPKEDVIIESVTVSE

Test [6] addresses T3, Hexa-His-tagged FklB (wild type) (E. coli). This is another data set of the same source.
In test [7] the target is T1, Hexa-His-tagged FkpB E86A (E. coli). The source holds these as a separate data set.
Test [8] addresses T2, Hexa-His-tagged FkpB (wild type) (E. coli). The source holds these as a separate data set.
The target in test [9] is T4, Hexa-His-tagged PpiC (wild type). The source holds these as a separate data set.

Read-outs that look alike come from different tables or passages of the source. Results are given in words; binding and its absence hold for the method and conditions named. Binding seen in cells or lysates may run through a third protein. A yes stands for co-enrichment or nearness to the bait. Other partners may have been found. Where a sequence is shown, tags or fusion partners need not be part of it.

On to “GapA protein (from UniProt P0A9B2 1-331)”, for which the binding result in test [1] and in test [2] was “binds” each time.
As for “transcriptional regulator Rob (from UniProt P0ACI0 1-289)”, the binding entry in test [3] was “binds”.
Regarding RpoA (from UniProt P0A7Z4 1-329), the binding result in test [3] and in test [4] was “binds” throughout.
In the case of “alkyl hydroperoxide reductase subunit C (AhpC) (from UniProt P0AE08 1-187)”, the binding result in test [3], in [1], in test [4] and in [2] was “binds” in each case.
For the molecule “Rho transcriptional terminator factor (from UniProt P0AG30 1-419)”, the binding entry in test [3], in test [1], in [4], in test [5] and in test [2] was “binds” in each case.
As for NusG (from UniProt P0AFG0 1-181), the binding entry in test [3] and in test [4] was “binds” in each case.
In the case of FabF (from UniProt P0AAI5 1-413), the binding result in test [1] and in test [2] was “binds” throughout.
Take “cell shape determining protein MreB (from UniProt P0A9X4 1-347)”: the binding entry in test [1], in test [5] and in test [2] was “binds” in each case.
On to “ribosome assembly-related GTP-binding protein ObgE (from UniProt P42641 1-390)”, for which the binding result in test [3] was “binds”.
As for SuhB (from UniProt P0ADG4 1-267), the binding result in test [4] was “binds”.

B1: TreC (protein, UniProt P28904 1-551)
chain: MTHLPHWWQNGVIYQIYPKSFQDTTGSGTGDLRGVIQHLDYLHKLGVDAIWLTPFYVSPQVDNGYDVANYTAIDPTYGTLDDFDELVTQAKSRGIRIILDMVFNHTSTQHAWFREALNKESPYRQFYIWRDGEPETPPNNWRSKFGGSAWRWHAESEQYYLHLFAPEQADLNWENPAVRAELKKVCEFWADRGVDGLRLDVVNLISKDPRFPEDLDGDGRRFYTDGPRAHEFLHEMNRDVFTPRGLMTVGEMSSTSLEHCQRYAALTGSELSMTFNFHHLKVDYPGGEKWTLAKPDFVALKTLFRHWQQGMHNVAWNALFWCNHDQPRIVSRFGDEGEYRVPAAKMLAMVLHGMQGTPYIYQGEEIGMTNPHFTRITDYRDVESLNMFAELRNDGRDADELLAILASKSRDNSRTPMQWSNGDNAGFTAGEPWIGLGDNYQQINVEAALADDSSVFYTYQKLIALRKQEAILTWGNYQDLLPNSPVLWCYRREWKGQTLLVIANLSREIQPWQAGQMRGNWQLVMHNYEEASPQPCAMNLRPFEAVWWLQK
B1: the binding result in test [6] is “binds”.

B2: putative methyl transferase YfiF (protein, UniProt P0AGJ5 1-345)
chain: MNDEMKGKSGKVKVMYVRSDDDSDKRTHNPRTGKGGGRPGKSRADGGRRPARDDKQSQPRDRKWEDSPWRTVSRAPGDETPEKADHGGISGKSFIDPEVLRRQRAEETRVYGENACQALFQSRPEAIVRAWFIQSVTPRFKEALRWMAANRKAYHVVDEAELTKASGTEHHGGVCFLIKKRNGTTVQQWVSQAGAQDCVLALENESNPHNLGGMMRSCAHFGVKGVVVQDAALLESGAAIRTAEGGAEHVQPITGDNIVNVLDDFRQAGYTVVTTSSEQGKPLFKTSLPAKMVLVLGQEYEGLPDAARDPNDLRVKIDGTGNVAGLNISVATGVLLGEWWRQNKA
Turning to B2, the binding result in test [7] and in [8] was “binds” in each case.

B3: EttA protein (Energy-dependent Translational Throttle A) (protein, UniProt P0A9W3 1-555)
chain: MAQFVYTMHRVGKVVPPKRHILKNISLSFFPGAKIGVLGLNGAGKSTLLRIMAGIDKDIEGEARPQPDIKIGYLPQEPQLNPEHTVRESIEEAVSEVVNALKRLDEVYALYADPDADFDKLAAEQGRLEEIIQAHDGHNLNVQLERAADALRLPDWDAKIANLSGGERRRVALCRLLLEKPDMLLLDEPTNHLDAESVAWLERFLHDFEGTVVAITHDRYFLDNVAGWILELDRGEGIPWEGNYSSWLEQKDQRLAQEASQEAARRKSIEKELEWVRQGTKGRQSKGKARLARFEELNSTEYQKRNETNELFIPPGPRLGDKVLEVSNLRKSYGDRLLIDDLSFSIPKGAIVGIIGPNGAGKSTLFRMISGQEQPDSGTITLGETVKLASVDQFRDSMDNSKTVWEEVSGGLDIMKIGNTEMPSRAYVGRFNFKGVDQGKRVGELSGGERGRLHLAKLLQVGGNMLLLDEPTNDLDIETLRALENALLEFPGCAMVISHDRWFLDRIATHILDYQDEGKVEFFEGNFTEYEEYKKRTLGADALEPKRIKYKRIAK
Turning to B3, the binding result in [6] and in [9] was “binds” throughout.

B4: RlmJ (protein, UniProt P37634 1-280)
chain: MLSYRHSFHAGNHADVLKHTVQSLIIESLKEKDKPFLYLDTHAGAGRYQLGSEHAERTGEYLEGIARIWQQDDLPAELEAYINVVKHFNRSGQLRYYPGSPLIARLLLREQDSLQLTELHPSDYPLLRSEFQKDSRARVEKADGFQQLKAKLPPVSRRGLILIDPPYEMKTDYQAVVSGIAEGYKRFATGIYALWYPVVLRQQIKRMIHDLEATGIRKILQIELAVLPDSDRRGMTASGMIVINPPWKLEQQMNNVLPWLHSKLVPAGTGHATVSWIVPE
Turning to B4, in test [6], the binding entry is “binds”.

B5: OxyR (protein, UniProt P0ACQ4 1-305)
chain: MNIRDLEYLVALAEHRHFRRAADSCHVSQPTLSGQIRKLEDELGVMLLERTSRKVLFTQAGMLLVDQARTVLREVKVLKEMASQQGETMSGPLHIGLIPTVGPYLLPHIIPMLHQTFPKLEMYLHEAQTHQLLAQLDSGKLDCVILALVKESEAFIEVPLFDEPMLLAIYEDHPWANRECVPMADLAGEKLLMLEDGHCLRDQAMGFCFEAGADEDTHFRATSLETLRNMVAAGSGITLLPALAVPPERKRDGVVYLPCIKPEPRRTIGLVYRPGSPLRSRYEQLAEAIRARMDGHFDKVLKQAV
B5: the binding entry in test [6] and in [9] was “binds” each time.
